Laboratory results from PubChem BioAssay AID192 (DTP/NCI, 2004).
The list does not hold the whole screen: it gathers tests that were run many times, whatever their T/C, doses with no T/C, and many T/C values between a quarter and a half above the control. Further doses and runs are listed elsewhere. T/C is the treated group as % of the vehicle group. Some doses have a count of surviving animals in place of a T/C: the source files T/C as zero there, which appears to mark a toxic dose or a test without result, not a measured value. Some doses without a T/C left all or most animals alive at the check, yet need not have been tolerated: the source hardly ever lists a survival T/C far under the control, and the zero likely stands for such cases as well. Counts of survivors are from the toxicity check (mostly the fifth day) where no day follows; animals may have died later. Schedules are NCI's codes, taken here to give the interval after Q, in days (D) or hours (H), and the number of doses after X. Some doses were run more than once; the results are listed from low to high. Brackets with × stand for listed records that agree. Where survival is the endpoint, the PubChem record calls one and a half times the control and up active, and a quarter to a half above the control has no call in these data; cut-offs in other NCI protocols can differ. Some T/C values carry the count of animals alive at the toxicity check (mostly the fifth day); without a count, all were alive then. Numbered stars: 1 amine (or outer) side, 2 acyl side, 3 side chain; on linkers, the order of the positions; unused ones are H or OH. Bridge positions count the residues as written; N and C are the ends. Square brackets hold non-standard residues; d marks the D form. Peptide text beside a SMILES is read from it. I, II: the chains in the order shown. Actinocin(9to1) = Cc1c2oc3c(C)ccc(C(=O)[*:1])c3nc-2c(C(=O)[*:2])c(N)c1=O; aThr = C[C@H](O)[C@H](N)C(=O)O; NMeV = CN[C@H](C(=O)O)C(C)C; Sar = CNCC(=O)O

Test system: BDF1 mice, B16 melanoma ip, median survival T/C
Assay: NCI In Vivo Anticancer Drug Screen. Data for tumor model B16 Melanoma (intraperitoneal) in B6D2F1 (BDF1) mice
Settings: T/C endpoint: median survival time, higher T/C = longer survival
Summary of the method: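 Transplantable tumor model; survival or tumor size measured; reported as T/C, treated over vehicle control.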

[1] = dose: 0.02 mg/kg/injection, schedule: Q01DX009 (ip), vehicle: saline
[2] = dose: 0.1 mg/kg/injection, schedule: Q01DX009 (ip), vehicle: saline

## Cc1c2oc3c(C)ccc(C(=O)N[C@@H]4C(=O)N[C@H](C(C)C)C(=O)N5CCC[C@H]5C(=O)N(C)CC(=O)N(C)[C@@H](C(C)C)C(=O)O[C@H]4C)c3nc-2c(C(=O)N[C@@H]2C(=O)N[C@H](C(C)C)C(=O)N3CCC[C@H]3C(=O)N(C)CC(=O)N(C)[C@@H](C(C)C)C(=O)O[C@H]2C)c(N)c1=O (I: [aThr][dV]P[Sar][NMeV] / II: [aThr][dV]P[Sar][NMeV]; ester I:1-I:C, II:1-II:C; linker I:N-II:N via Actinocin(9to1))
dose: 0.01 mg/kg/injection, schedule: Q01DX009 (ip), vehicle: saline, evaluated on day 45
  T/C: 112, 126, 145, 148 % of control
dose: 0.01 mg/kg/injection, schedule: Q01DX009 (ip), vehicle: saline, evaluated on day 60
  T/C: 132 % of control
dose: 0.01 mg/kg/injection, schedule: Q01DX009 (ip), vehicle: saline
  survivor count: 0 of 6 and 6 of 6
[1]
  T/C: 128 % of control [5 of 6 alive]
  survivor count: 0 of 6 and 6 of 6
dose: 0.03 mg/kg/injection, schedule: Q01DX009 (ip), vehicle: saline, evaluated on day 5
  T/C: 159 % of control
dose: 0.03 mg/kg/injection, schedule: Q01DX009 (ip), vehicle: saline, evaluated on day 45
  T/C: 107, 121, 158, 176 % of control
dose: 0.05 mg/kg/injection, schedule: Q01DX009 (ip), vehicle: saline, evaluated on day 5
  T/C: 177 % of control
dose: 0.05 mg/kg/injection, schedule: Q01DX009 (ip), vehicle: saline, evaluated on day 45
  T/C: 104, 125, 138, 185 % of control
dose: 0.05 mg/kg/injection, schedule: Q01DX009 (ip), vehicle: saline, evaluated on day 60
  T/C: 156 % of control
dose: 0.05 mg/kg/injection, schedule: Q01DX009 (ip), vehicle: saline
  survivor count: 0 of 6 and 6 of 6
[2]
  T/C: 112 % of control
  survivor count: 0 of 6 and 6 of 6 (2×)
dose: 0.1 mg/kg/injection, schedule: Q01DX009 (ip), vehicle: water
  survivor count: 10 of 10
dose: 0.1 mg/kg/injection, schedule: Q04DX003 (ip), vehicle: saline, evaluated on day 5
  T/C: 143 % of control
dose: 0.1 mg/kg/injection, schedule: Q04DX003 (ip), vehicle: saline, evaluated on day 10
  T/C: 135 % of control
dose: 0.13 mg/kg/injection, schedule: Q01DX001 (ip), vehicle: saline
  T/C: 125 % of control
dose: 0.2 mg/kg/injection, schedule: Q01DX001 (ip), vehicle: water
  T/C: 133 % of control
dose: 0.2 mg/kg/injection, schedule: Q01DX009 (ip), vehicle: saline
  survivor count: 5 of 6
dose: 0.2 mg/kg/injection, schedule: Q01DX009 (ip), vehicle: water
  survivor count: 10 of 10
dose: 0.2 mg/kg/injection, schedule: Q04DX003 (ip), vehicle: saline
  T/C: 130 % of control
dose: 0.23 mg/kg/injection, schedule: Q01DX009 (ip), vehicle: saline + alcohol
  survivor count: 10 of 10
dose: 0.25 mg/kg/injection, schedule: Q01DX001 (ip), vehicle: saline
  T/C: 126 % of control
dose: 0.4 mg/kg/injection, schedule: Q01DX001 (ip), vehicle: water
  T/C: 125 % of control
dose: 0.4 mg/kg/injection, schedule: Q01DX009 (ip), vehicle: saline
  survivor count: 0 of 6
dose: 0.45 mg/kg/injection, schedule: Q01DX009 (ip), vehicle: saline + alcohol
  survivor count: 0 of 10
dose: 0.5 mg/kg/injection, schedule: Q01DX001 (ip), vehicle: saline
  T/C: 131 % of control
dose: 0.8 mg/kg/injection, schedule: Q01DX001 (ip), vehicle: water
  survivor count: 7 of 10
dose: 0.9 mg/kg/injection, schedule: Q01DX009 (ip), vehicle: saline + alcohol
  survivor count: 0 of 10
dose: 1.6 mg/kg/injection, schedule: Q01DX001 (ip), vehicle: water
  survivor count: 0 of 10
dose: 1.8 mg/kg/injection, schedule: Q01DX009 (ip), vehicle: saline + alcohol
  survivor count: 0 of 10
dose: 1.0 micrograms/kg/injection, schedule: Q01DX009 (ip), vehicle: saline
  T/C: 130 % of control
dose: 6.25 micrograms/kg/injection, schedule: Q01DX009 (ip), vehicle: saline
  T/C: 131 % of control
dose: 7.8 micrograms/kg/injection, schedule: Q01DX009 (ip), vehicle: saline + alcohol
  T/C: 139 % of control
dose: 8.0 micrograms/kg/injection, schedule: Q01DX009 (ip), vehicle: saline
  T/C: 142 % of control
dose: 8.0 micrograms/kg/injection, schedule: Q01DX017 (ip), vehicle: saline
  T/C: 142 % of control
dose: 12.5 micrograms/kg/injection, schedule: Q01DX009 (ip), vehicle: saline, evaluated on day 45
  T/C: 129 % of control
dose: 12.5 micrograms/kg/injection, schedule: Q01DX009 (ip), vehicle: saline, evaluated on day 60
  T/C: 109, 123, 123 [5 of 6 alive], 125, 127, 130, 141, 146 [9 of 10 alive], 150, 155 % of control
dose: 12.5 micrograms/kg/injection, schedule: Q01DX009 (ip), vehicle: saline
  survivor count: 6 of 6
dose: 12.5 micrograms/kg/injection, schedule: Q01DX009 (ip), vehicle: water
  T/C: 132 and 139 % of control
dose: 13.0 micrograms/kg/injection, schedule: Q01DX009 (ip), vehicle: saline + alcohol
  T/C: 140 % of control
dose: 13.0 micrograms/kg/injection, schedule: Q01DX009 (ip), vehicle: saline, evaluated on day 45
  T/C: 114 % of control
dose: 13.0 micrograms/kg/injection, schedule: Q01DX009 (ip), vehicle: saline, evaluated on day 60
  T/C: 106, 109, 111, 113 (2×), 115, 119, 121, 125 [5 of 6 alive], 136, 140, 141, 157, 165, 172, 187, 200 % of control
dose: 13.0 micrograms/kg/injection, schedule: Q01DX009 (ip), vehicle: saline
  survivor count: 6 of 6
dose: 18.0 micrograms/kg/injection, schedule: Q01DX009 (ip), vehicle: saline
  T/C: 140 % of control
dose: 21.6 micrograms/kg/injection, schedule: Q01DX009 (ip), vehicle: saline + alcohol
  T/C: 131 % of control
dose: 25.0 micrograms/kg/injection, schedule: Q01DX009 (ip), vehicle: saline, evaluated on day 45
  T/C: 111 and 141 % of control
dose: 25.0 micrograms/kg/injection, schedule: Q01DX009 (ip), vehicle: saline, evaluated on day 60
  T/C: 94, 100, 106, 107, 111, 115, 116 [5 of 6 alive], 118, 120, 122, 125, 126, 130, 131, 131 [8 of 10 alive], 141 (2×), 142, 147 (2×), 151, 163, 164, 170, 175, 190, 200, 203, 231 % of control
dose: 25.0 micrograms/kg/injection, schedule: Q01DX009 (ip), vehicle: saline
  survivor count: 5 of 6 and 6 of 6
dose: 25.0 micrograms/kg/injection, schedule: Q01DX009 (ip), vehicle: water, evaluated on day 45
  T/C: 144 and 149 % of control
dose: 25.0 micrograms/kg/injection, schedule: Q01DX009 (ip), vehicle: water, evaluated on day 60
  T/C: 125 % of control
